Assay results published in patent EP4775226A1, “ANTIBODY DRUG CONJUGATE TARGETING GPC3 AND USE THEREOF” (priority 2023, dated 2025).
No constants are given. Whether binding was seen depends on the method and setting. Binding can be weak; no strength is given.

By UniProt entry, the sequences of proteins in these tests, tags left out. Where a name states a change or a piece, a line headed by the entry shows the natural chain unless it says otherwise.
UniProt P51654: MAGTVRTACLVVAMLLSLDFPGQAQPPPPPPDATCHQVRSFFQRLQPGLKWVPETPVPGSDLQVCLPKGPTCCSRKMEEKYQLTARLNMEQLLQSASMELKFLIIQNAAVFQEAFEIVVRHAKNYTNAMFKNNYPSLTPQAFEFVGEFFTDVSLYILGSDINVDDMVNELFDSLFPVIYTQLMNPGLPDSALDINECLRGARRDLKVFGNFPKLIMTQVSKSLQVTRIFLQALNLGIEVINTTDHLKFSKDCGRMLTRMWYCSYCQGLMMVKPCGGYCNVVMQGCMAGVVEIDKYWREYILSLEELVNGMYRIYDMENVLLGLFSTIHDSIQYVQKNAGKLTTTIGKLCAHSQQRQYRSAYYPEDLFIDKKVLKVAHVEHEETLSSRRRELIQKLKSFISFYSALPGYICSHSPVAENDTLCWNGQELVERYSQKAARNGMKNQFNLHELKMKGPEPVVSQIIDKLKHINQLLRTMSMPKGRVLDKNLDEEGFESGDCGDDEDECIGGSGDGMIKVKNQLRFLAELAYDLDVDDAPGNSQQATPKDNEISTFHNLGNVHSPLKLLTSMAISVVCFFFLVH

Target: human GPC3 (Glypican-3) (human, UniProt P51654 25-580)
Assay: FACS on GPC3-CHO-K1, HepG2 and Huh-7 cells

| binding | Binder |
| --- | --- |
| binds | Hu 52H5D3B8-7 (antibody, human IgG1, kappa, V domains shown, also called humanized GPC3 antibody Hu 52H5D3B8-7) VH: EVQLVQSGAEVKKPGASVKVSCKASGYTFTDYEMHWVRQAPGQGLEWMGAIHPGSGGTAYNQKFKGRVTMTADKSISTAYMELSRLRSDDTAVYYCTRFYSYAYWGQGTLVTVSS VL: DVVMTQTPLSLSVTPGQPASISCRSSQSLVHSNGNTYLQWYLQKPGQSPQLLIYKVSNRFSGVPDRFSGSGSGTDFTLKISRVEAEDVGVYYCSQSIHVPYTFGGGTKVEIKR |
| binds | Y035 CDRs with Hu 52H5D3B8-7 FRs (antibody, V domains shown, detected with anti-human IgG) VH: EVQLVQSGAEVKKPGASVKVSCKASGYTFTDYEMHWVRQAPGQGLEWMGAIHPGSGDTAYNQRFKGRVTMTADKSISTAYMELSRLRSDDTAVYYCTRFYSYAYWGQGTLVTVSS VL: DVVMTQTPLSLSVTPGQPASISCRSSQSLVHSNGNTYLQWYLQKPGQSPQLLIYKVSNRFSGVPDRFSGSGSGTDFTLKISRVEAEDVGVYYCSQSIYVPYTFGGGTKVEIK |
